The nature of the series: hydroxyapatite crystal induction in a cell-free system in metasilicate gels (SEM, EDS). To be noted: 20 μg/mL in sodium metasilicate gel, 7 days at 37° C.

For MGTSSTDSQQAQHRRCSTSN, the “Ca/P ratio of the crystals formed (EDS)” value was determined as 1.7 and the “hydroxyapatite crystal formation (microscopy)” value is “hydroxyapatite crystals induced”.
